Earlier results as cited in US20260151341A1, “NOVEL AMORPHOUS ACTIVE PHARMACEUTICAL INGREDIENTS” (DISRUPTIVE PHARMA AB, priority 2020, published 2026).
At least one compound was matched to its structure with a doubt left.

Details: mesoporous magnesium carbonate material of WO2017/174458

CCC(C)n1ncn(-c2ccc(N3CCN(c4ccc(OCC5COC(Cn6cncn6)(c6ccc(Cl)cc6Cl)O5)cc4)CC3)cc2)c1=O (stereo not shown) [Itraconazole, itraconazole]
API load at which kept amorphous: up to 30 % by weight
